Test results reported in PubChem BioAssay AID493014 (National Center for Advancing Translational Sciences (NCATS), 2011).
Some of the results follow. Shown are side measurements of this screen, not its main read-out; they come without a call. Compounds called inactive in the main read-out are mostly missing here. Words in brackets tell the shape of the fitted curve; partial curves, single points and poor fits give uncertain potencies.

Experiment: qHTS Assay to Find Inhibitors of Chronic Active B-Cell Receptor Signaling
Conditions: ABC-DLBCL IkBa-CBG/CBR reporter, luminescence ratio (green luciferase fused to IkBa over red control in TMD8 lymphoma cells), 4 h
Outline: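 TMD8 human ABC-DLBCL cells with doxycycline-inducible IκBα–green luciferase fusion and unfused red luciferase, in 0.5% FBS medium; compounds up to 46 uM, 4 h at 37C. Green/red luminescence ratio, filter-overlap corrected, fitted to concentration-response curves.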

[1] = measured here: CBR red luminescence, cell number
[2] = measured here: IkBa-CBG green luminescence

Structure (SMILES)	AC50 [1]	AC50 [2]
CSc1nnc2c3ccccc3n(CCc3ccccc3)c2n1	11.2 µM [falling, partial curve, poor fit]	
CCCCOc1ccc(C(=O)N/N=C/c2cn[nH]c2-c2ccc(OC)c(OC)c2)cc1	18.4 µM [falling, single point]	
Cc1cc(Nc2ccc(Cl)cc2)nc(-c2ccccc2O)n1	7.08 µM [rising, full curve]	
CCC(Oc1ccc(Br)cc1)C(=O)N1CCN(c2ncccn2)CC1 (configuration not stated)	15.8 µM [falling, single point]	
CCOC(=O)c1cc(NC(=O)CCC(=O)O)ccc1N1CCCCC1	35.5 µM [rising, single point]	
COc1ccc(C(=O)Cc2cnn(-c3ccccc3)c2)c(O)c1	5.8 µM [rising, full curve, poor fit]	
Cc1cc(C(=O)OCC(=O)Nc2ccccc2F)c(C)o1	14.1 µM [falling, partial curve, poor fit]	
COc1ccc(CN(C)C(=O)c2ccc(OCC(=O)Nc3cccc(C(F)(F)F)c3)c(OC)c2)c(OC)c1	29.1 µM [falling, partial curve, poor fit]	
O=C(O)/C=C/c1cn(-c2ccccc2)nc1-c1cc2ccccc2o1	0.158 µM [rising, full curve, poor fit]	
CCn1c2ccccc2c2cc(CC(N)=O)ccc21	25.1 µM [falling, single point]	
CC(C)(O)c1[nH]c2cc(C(F)(F)F)ccc2c1C(C)(C)O	11.2 µM [rising, partial curve, poor fit]	
CCCCCc1ccc(OCCOCCn2c[n+](C)c3ccccc32)c(CCCCC)c1	20 µM [falling, partial curve, poor fit]	
CSCCC(NC(=O)COc1ccccc1)C(=O)N1CCN(c2ccccc2)CC1 (configuration not stated)	32.6 µM [falling, single point]	
O=C(CC(=O)c1cc(Cl)ccc1O)c1ccccc1	2.59 µM [rising, partial curve, poor fit]	
Cc1ccc(/C=C/C(=O)CCC(=O)O)cc1	35.5 µM [falling, single point]	
Cc1cc(C)cc(C(=O)Nc2cccnc2Cl)c1	10 µM [rising, partial curve, poor fit]	
O=C(NC(=S)Nc1ccc2[nH]ncc2c1)c1ccccc1	13 µM [falling, partial curve, poor fit]	
COc1cc(NC(=O)c2c(F)c(F)c(F)c(F)c2F)c(OC)cc1Cl	23.1 µM [falling, single point]	
CCOC(=O)N1CCN(C(=O)C2CCN(S(=O)(=O)c3ccc(Cl)cc3)CC2)CC1	10.3 µM [falling, partial curve, poor fit]	
Cn1c(=O)[nH]c(=O)c2c1nc(N1CCN(CCO)CC1)n2Cc1ccccc1Cl		15.8 µM [falling, partial curve, poor fit]
COc1cc(C(=O)Nc2nc3ccc(S(C)(=O)=O)cc3s2)cc(OC)c1C	0.562 µM [falling, full curve, poor fit]	
CCn1c(/C=C/c2ccccc2)nc2ccccc2c1=O	25.1 µM [falling, single point]	

Structure (SMILES)	AC50 [1]	AC50 [2]
CCOc1ccc2c(c1)OC(c1ccc(OC)cc1)(C(F)(F)F)NC2=O (configuration not stated)	23.1 µM [rising, single point]	14.6 µM [falling, partial curve]
CCOc1ccc(S(=O)(=O)N(CC(N)=O)c2ccc(C)cc2)cc1	29.1 µM [rising, single point]	
O=C(NCCCc1nc2ccccc2[nH]1)c1ccc(F)cc1	5.01 µM [falling, full curve, poor fit]	
COc1cccc(NC(=O)NCc2ccccc2F)c1	11.2 µM [falling, partial curve]	
CCC(=O)c1c(NC)cc(C)oc1=O	25.1 µM [falling, single point]	
Cc1cc(C)cc(NC(=O)CSc2nnc(-c3ccccc3)n2N)c1	35.5 µM [falling, single point]	
COc1cc(OC)c(N(C)C(=O)CCNC(=O)Cn2cnc3ccccc3c2=O)cc1Cl	0.164 µM [rising, full curve, poor fit]	
CC(=O)Nc1ccc(NC(=O)C(C)O/N=C/c2cccc([N+](=O)[O-])c2)cc1 (configuration not stated)	2.06 µM [falling, partial curve, poor fit]	
CCO[C@H]1OC(C(=O)N2CCCCCCC2)=C[C@@H](c2ccc(C(F)(F)F)cc2)[C@@H]1CCCO	1.78 µM [rising, partial curve, poor fit]	
CCOc1ccc(OCCSc2nc3ccccc3n2CC(=O)O)cc1	12.6 µM [falling, partial curve, poor fit]	
CCOC(=O)C1=C(C)N=C2SCCC(=O)N2C1c1ccc(C(=O)OC)cc1 (configuration not stated)	8.2 µM [rising, partial curve]	
O=C(NC(NC(=S)Nc1c(Cl)cc(Cl)cc1Cl)C(Cl)(Cl)Cl)OCc1ccccc1 (configuration not stated)	29.1 µM [falling, single point]	
CCOc1cc(C(=S)N2CCCC2)ccc1OCc1ccccc1	11.2 µM [falling, partial curve, poor fit]	
O=c1[nH]c2cc(NCCO)c([N+](=O)[O-])cc2[nH]1	14.1 µM [rising, partial curve, poor fit]	
COc1ccc(OC)c(-n2c(=S)[nH]c3cc(C(=O)N(C)Cc4ccccc4)ccc3c2=O)c1	35.5 µM [falling, single point]	
Oc1ccccc1C1=Nc2nc3ccccc3n2C(c2ccccc2)C1 (configuration not stated)	18.4 µM [falling, single point]	
S=C1SCN(Cc2ccccc2)CN1Cc1ccccc1	15.8 µM [falling, partial curve]	17.8 µM [falling, partial curve, poor fit]
Cc1[nH]c2ccc(C(=O)OC(C)C(=O)N(C)c3ccccc3)cc2c1C (configuration not stated)	29.1 µM [falling, single point]	
c1ccc(Cc2nnc3sc(-c4cccs4)nn23)cc1	1.46 µM [falling, full curve]	
O=C(Nc1cccc(Cl)c1)O/N=C\c1ccncc1	17.8 µM [rising, partial curve, poor fit]	
Fc1ccc(CNc2nc(-c3cccnc3)nc3ccccc23)cc1	0.631 µM [rising, full curve, poor fit]	
O=C(NCCc1ccccc1)C1CCCN(C(=O)NC2CCCCC2)C1 (configuration not stated)	6.31 µM [rising, single point]	

Taken from the results shown (4 entries):
Structure (SMILES)	AC50 [1]	AC50 [2]
CCOc1ccc(OCCSc2nc3ccccc3n2CC(=O)O)cc1	12.6 µM [falling, partial curve, poor fit]	
CCOC(=O)C1=C(C)N=C2SCCC(=O)N2C1c1ccc(C(=O)OC)cc1 (configuration not stated)	8.2 µM [rising, partial curve]	
O=C(NC(NC(=S)Nc1c(Cl)cc(Cl)cc1Cl)C(Cl)(Cl)Cl)OCc1ccccc1 (configuration not stated)	29.1 µM [falling, single point]	
CCOc1cc(C(=S)N2CCCC2)ccc1OCc1ccccc1	11.2 µM [falling, partial curve, poor fit]	

Next part.

Structure (SMILES)	AC50 [1]	AC50 [2]
O=C(Cc1ccccc1)N/N=C/c1ccc(Cl)cc1Cl	2.24 µM [rising, full curve, poor fit]	
COc1ccc(/C=C/c2cc(-c3ccc(C)cc3)o[n+]2C)cc1	7.94 µM [falling, partial curve, poor fit]	
Cc1nnc(SCc2ccc3c(c2)OCO3)s1	2.91 µM [rising, full curve, poor fit]	
CCCOCCOC(=O)c1[nH]c2c(c1C)C(=O)CC(c1cc(OC)ccc1OC)C2 (configuration not stated)	9.2 µM [rising, partial curve]	2.91 µM [falling, full curve]
COc1ccc2nc(-c3ccc(Cl)cc3)cc(C(=O)O)c2c1	12.6 µM [falling, partial curve, poor fit]	
COc1ccc(OC)c(C2=NOC(C(=O)NCC3CCCO3)C2)c1 (configuration not stated)	5.62 µM [rising, single point]	
CC(C)C(=O)COc1c2occc2cc2ccc(=O)oc12	29.1 µM [rising, single point]	
N#Cc1c(N)nc(N)nc1Nc1ccc(Br)cc1	0.501 µM [rising, partial curve, poor fit]	
C/C(=N/NC(=O)CNC(=O)COc1ccccc1)c1ccc(Cl)cc1	15.8 µM [rising, partial curve, poor fit]	
O=C(O)c1cc(N=Cc2c(O)c3ccccc3oc2=O)ccc1O	5.62 µM [falling, full curve]	
O=C(NNC(=O)C1C2C=CC(C2)C1C(=O)O)c1ccccc1 (configuration not stated)	4.47 µM [falling, partial curve, poor fit]	
COc1ccc(C(=O)Nc2cc(Cl)ccc2N2CCOCC2)cc1S(=O)(=O)N1CCOCC1	2.59 µM [falling, full curve, poor fit]	
CCC(=O)Nc1ccc(C(=O)COC(=O)Cc2ccsc2)cc1	0.366 µM [rising, full curve, poor fit]	
O=C(Nc1ccc(Nc2ccccc2)cc1)c1cccc(F)c1	35.5 µM [falling, partial curve, poor fit]	
CCN(CC)c1ccc(NC(=O)COC(=O)c2ccc3ccccc3n2)cc1	0.00461 µM [rising, full curve, poor fit]	
O=C(CNC(=O)c1cc2c(n(-c3ccccc3)c1=O)CCCC2=O)c1ccccc1	35.5 µM [rising, single point]	
Cc1nn(C)c(C(=O)NNC(=S)NCC(C)C)c1Cl	10.3 µM [rising, partial curve, poor fit]	
O=C(O)c1ccccc1NS(=O)(=O)c1cccc2cccnc12	2.31 µM [falling, partial curve]	
CCCCCOC(=O)c1ccc(OC(=O)c2cncc(Br)c2)cc1	3.16 µM [rising, full curve]	
COc1cc(NS(=O)(=O)c2ccc(NC(=O)/C(=C/c3ccccc3Cl)NC(=O)c3ccccc3)cc2)nc(OC)n1	11.6 µM [rising, partial curve, poor fit]	
